The structures given here were assigned with low confidence; some may be wrong.
How the values were obtained:
CK1ε = CK1ε (Homo sapiens (Human), UniProt P49674); test: CK1ε kinase assay (Caliper LABCHIP electrophoretic separation of fluoresceinated peptide substrate and product); type: biochemical; conditions: read-out: CK1ε (IC50); 200 pM enzyme, 50 μM ATP, 22 hours at room temperature
CK1δ = CK1δ (Homo sapiens (Human), UniProt P48730); test: CK1δ kinase assay (Caliper LABCHIP electrophoretic separation of fluoresceinated peptide substrate and product); type: biochemical; conditions: read-out: CK1δ (IC50); 200 pM enzyme, 50 μM ATP, 22 hours at room temperature

Protein sequences, listed by entry. Tags and fused reporters are not part of them. Lines headed by an entry give the natural chain unless they say otherwise; changes in a name come on top.
UniProt P49674, whole entry: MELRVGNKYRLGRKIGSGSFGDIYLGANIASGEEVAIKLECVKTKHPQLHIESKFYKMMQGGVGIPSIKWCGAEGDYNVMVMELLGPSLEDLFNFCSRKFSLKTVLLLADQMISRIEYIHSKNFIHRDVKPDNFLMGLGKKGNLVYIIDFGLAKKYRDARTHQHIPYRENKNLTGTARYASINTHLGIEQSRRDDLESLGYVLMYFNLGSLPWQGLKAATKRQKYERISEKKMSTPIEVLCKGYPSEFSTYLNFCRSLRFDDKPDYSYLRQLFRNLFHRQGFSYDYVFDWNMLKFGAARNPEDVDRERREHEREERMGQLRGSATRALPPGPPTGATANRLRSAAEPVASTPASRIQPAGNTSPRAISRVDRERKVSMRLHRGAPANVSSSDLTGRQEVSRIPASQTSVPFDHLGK
UniProt P48730, whole entry: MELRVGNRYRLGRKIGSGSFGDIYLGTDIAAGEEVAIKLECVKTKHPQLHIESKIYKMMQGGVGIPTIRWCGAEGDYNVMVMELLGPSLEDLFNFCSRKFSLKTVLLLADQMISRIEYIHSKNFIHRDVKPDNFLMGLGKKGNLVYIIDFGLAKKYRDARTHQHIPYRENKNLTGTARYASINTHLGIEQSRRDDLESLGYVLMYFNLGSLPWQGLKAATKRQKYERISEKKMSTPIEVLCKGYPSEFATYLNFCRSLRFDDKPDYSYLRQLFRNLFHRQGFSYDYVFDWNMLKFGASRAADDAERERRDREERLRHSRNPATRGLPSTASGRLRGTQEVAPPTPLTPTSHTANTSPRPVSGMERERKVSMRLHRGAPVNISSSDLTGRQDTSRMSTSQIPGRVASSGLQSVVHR

`Cc1nc(-c2ccc(F)cc2)c(-c2ccc3nc(NC(=O)C4CCN(Cc5ccccc5)CC4)cn3n2)n1C` showed an IC50 (CK1ε) of 6.47 nM and an IC50 (CK1δ) of 3.17 nM.
